PubChem BioAssay AID1508597 – Cure First – 2020

- Test: 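Survival screen with siRNA in ovarian cancer cells derived from patients, with or without rucaparib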 (primary screen)
- Cell system: human ovarian carcinoma lines grown from tumours: OCI-P5x (papillary serous) and OCI-C5x (clear cell)
- Reagents: siRNA pool against human genes, 1.25 pmol siRNA per well
- Timing: 72 h or 96 h, depending on the cell culture
- Conditions: rucaparib 20 µM (about IC30) or vehicle, present until read-out
- Rucaparib or vehicle: Vehicle
- Cell line: OCI-C5x (clear cell)
- Measurement: 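Luminescent ATP-based viability assay read 72 or 96 h after transfection, depending on culture, given as normalised percent viability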
- Reading the numbers: viability, normalised: higher = more viable cells remaining
- Call rule: 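a well counts as a hit if its normalised viability is under 80 percent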
- Calls: active = viability under 80%; inactive = viability 80% or more
Shown is a random part of the about 2,100 reagents, in one setting of the screen. 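Calls flag viability under 80% in either arm, not effects specific to rucaparib; the reference for percent is not stated.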 Reagent sequences are not shown. The record does not give: the 100% reference.

Target gene | technical replicate | viability, normalised (%) | call
CLP1 | 1 | 33.4 | active
CLP1 | 2 | 50.7 | active
CLP1 | 3 | 35.2 | active
HK2 | 1 | 52.8 | active
HK2 | 2 | 52.1 | active
HK2 | 3 | 53.6 | active
BRWD3 | 1 | 44 | active
BRWD3 | 2 | 50.2 | active
BRWD3 | 3 | 54.5 | active
TFAM | 1 | 46.8 | active
TFAM | 2 | 51 | active
TFAM | 3 | 63.1 | active
SLX4 | 1 | 50.1 | active
SLX4 | 2 | 46.3 | active
SLX4 | 3 | 30.4 | active
MYLK2 | 1 | 44.8 | active
MYLK2 | 2 | 30.8 | active
MYLK2 | 3 | 32.4 | active
GTF2H1 | 1 | 53.1 | active
GTF2H1 | 2 | 67.9 | active
GTF2H1 | 3 | 51.6 | active
PAX5 | 1 | 32 | active
PAX5 | 2 | 22.5 | active
PAX5 | 3 | 31.7 | active
MERTK | 1 | 48.5 | active
MERTK | 2 | 44.1 | active
MERTK | 3 | 53.9 | active
SETDB1 | 1 | 43.1 | active
SETDB1 | 2 | 47.3 | active
SETDB1 | 3 | 43.5 | active
DCLK3 | 1 | 59.3 | active
DCLK3 | 2 | 61.3 | active
DCLK3 | 3 | 47.6 | active
SREBF1 | 1 | 29.6 | active
SREBF1 | 2 | 61.1 | active
SREBF1 | 3 | 44.7 | active
GCK | 1 | 53.8 | active
GCK | 2 | 52.3 | active
GCK | 3 | 56.7 | active
